One may read the AC50 as the concentration at which the activity in the assay is half-maximal.

This experiment can be described thus: qHTS Assay to Find Inhibitors of Chronic Active B-Cell Receptor Signaling. The note with it: ABC-DLBCL IkBa-CBG/CBR reporter, luminescence ratio (green luciferase fused to IkBa over red control in TMD8 lymphoma cells), 4 h. A digest of the protocol: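 TMD8 human ABC-DLBCL cells with doxycycline-inducible IκBα–green luciferase fusion and unfused red luciferase, in 0.5% FBS medium; compounds up to 46 uM, 4 h at 37C. Green/red luminescence ratio, filter-overlap corrected, fitted to concentration-response curves.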

Setting [1] is: measured here: CBR red luminescence, cell number.
The mark [2] stands for this setting: measured here: IkBa-CBG green luminescence.

Where “and” joins values, the source holds several entries; their conditions need not be identical. Equal values may be shown once. Some of the results follow. Further columns of the screen follow, without active or inactive calls. The list favours compounds with an active or inconclusive main result. The note in brackets gives the kind of curve behind each potency; many fits are weak. Square brackets hold non-standard residues; d marks the D form. Peptide text beside a SMILES is read from it. pGlu = O=C1CC[CH](C(=O)O)N1

Take `CC(C)=NOc1nc(N(C)C)nc(N(C)C)n1`: the AC50 under setting [1] was 1.64 µM [rising, single point].

`CC1CN(S(=O)(=O)c2ccc(NC(=O)c3cc(-c4ccccc4O)n[nH]3)cc2)CC(C)O1` (stereo not given): the AC50 under setting [1] is 12.6 µM [falling, partial curve].

On to `COc1ccc(-n2c(N)c(C(=O)Nc3c(C)n(C)n(-c4ccccc4)c3=O)c3nc4ccccc4nc32)cc1`, for which, under setting [1], the AC50 is 14.1 µM [rising, single point].

In the case of `CCCc1cc(C(=O)Nc2cccnc2)no1`, under setting [1], the AC50 was 11.2 µM [falling, partial curve, poor fit].

In the case of `CC(=O)c1ccc(N2CCN(C(=O)C3(S(=O)(=O)c4ccc(Cl)cc4)CC3)CC2)cc1`, the AC50 under setting [1] was 10 µM [falling, partial curve, poor fit].

On to `Fc1cccc(Cn2cc(C(=S)N3CCOCC3)c3ccccc32)c1`, for which, under setting [1], the AC50 was 22.4 µM [falling, partial curve, poor fit].

For the molecule `S=C1SCN(Cc2cccnc2)CN1Cc1cccnc1`, the AC50 under setting [1] is 12.6 µM [falling, partial curve, poor fit].

`Cc1cc(C)n(-c2nc3ccccc3c(=O)n2OCc2ccc(F)cc2)n1`: the AC50 under setting [1] is 14.1 µM [falling, single point].

Regarding `CN(C)/C=C1\SC(=S)N(c2ccc(Br)cc2)C1=O`, the AC50 under setting [1] is 10 µM [rising, partial curve, poor fit].

`O=C(Nc1cccc(F)c1)C1CCN(C(=O)Cc2ccccc2)CC1`: the AC50 under setting [1] was 2.06 µM [falling, partial curve].

For `O=C(Nc1ccccc1)c1nnn(Cc2ccccc2)c1NC(=O)C(F)(F)F`, the AC50 under setting [1] is 11.2 µM [falling, partial curve].

Turning to `COC(=O)c1cccc(NC(=O)NC(=O)c2ccccc2Cl)c1`, the AC50 under setting [1] was 1.12 µM [falling, full curve].

As for `COc1ccc(Cl)cc1NC(=O)C/C(C)=N/NC(=O)c1ccccc1[N+](=O)[O-]`, the AC50 under setting [1] was 11.2 µM [falling, partial curve, poor fit].

Take `CCN(CCCNC(=O)c1c(C)cc(=O)oc1C)c1ccccc1`: under setting [1], the AC50 is 29.1 µM [falling, partial curve, poor fit].

For `CC1Cc2ccccc2N1C(=O)CSc1nnc(-c2ccccc2)c(-c2ccccc2)n1` (stereo not given), the AC50 under setting [1] was 35.5 µM [falling, partial curve, poor fit].

Take `Cc1cccc(NC(=S)NNC(=O)c2ccccc2Br)c1`: the AC50 under setting [1] was 29.1 µM [falling, single point].

On to `CC(C)OC(=O)CSc1nnc(Cc2ccccc2)n1Cc1ccco1`, for which the AC50 under setting [1] is 29.1 µM [falling, single point].

Take `CN1CCN(c2ccccc2NC(=O)c2ccc(-c3cccc(Cl)c3)o2)CC1`: the AC50 under setting [1] is 15.8 µM [falling, partial curve, poor fit].

In the case of `Cc1ccc(-c2cc(NC(=O)CCl)n(-c3ccccc3)n2)cc1`, under setting [1], the AC50 was 35.5 µM [falling, single point].

On to `O=C(CSc1nc(Nc2ccc(F)cc2)c2ccccc2n1)c1ccc(F)cc1`, for which, under setting [1], the AC50 is 2.82 µM [falling, single point].

Take `O=[N+]([O-])c1cccc(-c2nn(-c3ccccc3)cc2CO)c1`: under setting [1], the AC50 is 2.51 µM [rising, partial curve, poor fit].

Regarding `CC(=O)Nc1ccc(NC(=O)COC(=O)[C@@H](NC(=O)c2ccc(F)cc2)C(C)C)cc1`, under setting [1], the AC50 was 35.5 µM [rising, single point].

With `CCC(=O)Nc1ccc2c(c1)Cc1cc(NC(=O)CC)ccc1-2`, the AC50 under setting [1] is 20 µM [rising, partial curve, poor fit].

As for `COc1cccc(C(=O)COc2ccc(NC(=O)c3cccs3)cc2)c1`, under setting [1], the AC50 is 35.5 µM [falling, single point].

On to `O=C(Nc1ccc(N2CCN(C(=O)c3ccccc3)CC2)cc1)c1ccc2c(c1)OCO2`, for which the AC50 under setting [1] is 10 µM [falling, partial curve, poor fit].

With `O=C(COc1ccc(-c2nnco2)cc1)Nc1ccc(F)c(Cl)c1`, the AC50 under setting [1] was 0.326 µM [rising, full curve, poor fit].

On to `O=C(NNS(=O)(=O)c1ccccc1)c1csc(-c2cccnc2)n1`, for which the AC50 under setting [1] was 0.562 µM [falling, full curve, poor fit].

Take `COc1ccc(-n2ncc3c(NCc4ccco4)ncnc32)cc1`: under setting [1], the AC50 was 4.47 µM [rising, single point].

As for `Cc1ccccc1Cc1c(C)nc2c(C(=O)NCc3ccco3)cnn2c1C`, the AC50 under setting [1] is 12.6 µM [falling, single point].

In the case of `O=C(CSc1nc2ccccc2c(=O)n1Cc1ccco1)N1CCCC1`, under setting [1], the half-maximal activity concentration (AC50) was 7.08 µM [falling, partial curve, poor fit].

On to `Cc1ccc(C)c(NC(=O)CSc2nccn2Cc2ccco2)c1`, for which the AC50 under setting [1] is 0.447 µM [falling, partial curve, poor fit].

Turning to `C/C(CC(=O)NCc1ccc(Cl)cc1)=N\NC(=O)c1ccccc1F`, the AC50 under setting [1] was 20 µM [falling, partial curve, poor fit].

With `O=C(O)CN1C(=O)/C(=C\c2cc(Br)ccc2OCc2ccc([N+](=O)[O-])cc2)SC1=S`, under setting [1], the AC50 was 8.91 µM [rising, partial curve, poor fit].

In the case of `COCCNC(=O)c1cc2c(-c3ccccc3F)nn(C)c2s1`, under setting [1], the AC50 was 4.61 µM [falling, full curve].

As for `COc1ccc(NC(=O)c2cccc(NC(=O)c3ccccc3)c2)c(OC)c1`, under setting [1], the AC50 is 35.5 µM [falling, single point].

Regarding `CCOc1ccc(NC(=O)CSc2nc3nc4c(cc3c(=O)n2CC)COC(C)(C)C4)cc1`, the AC50 under setting [1] is 12.6 µM [rising, partial curve, poor fit] and the AC50 under setting [2] was 7.94 µM [falling, partial curve, poor fit].

Turning to `CCn1c(COc2cccc3cccnc23)nnc1SCC(=O)O`, under setting [1], the AC50 is 0.517 µM [falling, partial curve, poor fit].

Turning to `COc1cc(NC(=O)c2ccc3c(=O)n(Cc4ccco4)c(=S)[nH]c3c2)cc(OC)c1OC`, the concentration at half-maximal activity (AC50) under setting [1] was 0.251 µM [falling, full curve, poor fit].

In the case of `O=C(CCN1C(=O)C2C3C=CC(C3)C2C1=O)NCCc1ccccc1Cl` (stereo not given), the AC50 under setting [1] was 1.03 µM [rising, full curve, poor fit].

With `COc1ccc(C(=O)Nc2ccc3c(c2)CCCN3C(=O)c2cccs2)c(OC)c1`, the AC50 under setting [1] is 31.6 µM [falling, single point].

As for `O=C(O)c1ccc(Nc2nc(-c3cccnc3)cs2)cc1`, under setting [1], the AC50 is 0.112 µM [falling, full curve].

Consider `COc1ccc(NS(=O)(=O)c2csc(C(N)=O)c2)cc1OC`, for which, under setting [1], the AC50 is 3.98 µM [rising, full curve].

`Cc1ccc(S(=O)(=O)CCc2nnc(NC(=O)C3CCCO3)s2)cc1` (stereo not given): the AC50 under setting [1] is 16.4 µM [rising, single point].

In the case of `CCOC(=O)CSc1nnc(NCC(=O)OC)c(=O)[nH]1`, the AC50 under setting [1] was 14.6 µM [falling, partial curve, poor fit].

For the molecule `CCn1c2ccc(OC)cc2c2nc3ccccc3nc21`, the AC50 under setting [1] is 1.03 µM [falling, full curve].

As for `COC(CNC(=O)c1coc2nc3ccccc3nc12)OC`, under setting [1], the AC50 was 12.6 µM [falling, single point].

As for `O=C(COC(=O)Cc1c[nH]c2ccccc12)Nc1ccccc1`, the AC50 under setting [1] is 5.8 µM [falling, partial curve].

Consider `Cc1noc(C)c1COc1cccc(C(=O)Nc2ccc(C#N)cc2)c1`, for which the AC50 under setting [1] is 3.66 µM [falling, partial curve, poor fit].

Turning to `COc1cc2c(cc1OC)C(CCc1ccccc1)=NCC2`, the AC50 under setting [1] is 3.16 µM [falling, single point].

Regarding `O=[N+]([O-])c1ccc(-c2cc(-c3ccc(Cl)cc3)n[nH]2)cc1`, the AC50 under setting [1] is 0.447 µM [rising, full curve, poor fit].

Consider `COc1ccccc1Nc1c([N+](=O)[O-])cc(C)cc1[N+](=O)[O-]`, for which the AC50 under setting [1] was 25.1 µM [falling, single point].

For the molecule `COc1cc(C(=O)Nc2nc3ccccc3[nH]2)cc(OC)c1OC`, under setting [1], the AC50 was 9.2 µM [falling, partial curve, poor fit].

Take `Cc1cc(Br)cc(Br)c1OCC(=O)NNC(=O)CCC(=O)NCc1ccccc1`: under setting [1], the AC50 was 35.5 µM [rising, partial curve, poor fit].

As for `O=C(CSc1ccccc1)NCc1cccnc1`, the AC50 under setting [1] is 7.08 µM [rising, partial curve, poor fit].

Turning to `O=C(O)Cc1ccc(C(=O)c2cccs2)s1`, the AC50 under setting [1] was 2.51 µM [rising, full curve, poor fit].

Turning to `COc1cc2ccccc2cc1C(=O)NC1CCC(C)CC1` (stereo not given), the concentration at half-maximal activity (AC50) under setting [1] was 23.1 µM [rising, partial curve, poor fit].

Regarding `Cc1cc2cc3c(cc2nc1SCC(=O)O)CCC3`, under setting [2], the AC50 was 3.98 µM [rising, full curve, poor fit].

`O=Nc1c(-c2ccccc2)cc2ccccn12`: the AC50 under setting [1] is 22.4 µM [falling, single point].

Take `COc1ccc(C(=O)Oc2ccc(/C=N/O)cc2)cc1`: the AC50 under setting [1] was 35.5 µM [rising, single point].

With `C=CCNc1ncnc2c1ncn2C1OC(CO)C(O)C1O` (stereo not given), the AC50 is 12.6 µM [rising, partial curve] under setting [1] and 10 µM [falling, partial curve] under setting [2].

For `CCOc1ccc(C(=O)N(CN2CCCC2=O)c2ccccc2)cc1`, under setting [1], the AC50 is 11.2 µM [falling, partial curve, poor fit].

In the case of `COc1cccc(-c2ccc3ncnc(NCc4cccs4)c3c2)c1`, the AC50 under setting [1] was 23.1 µM [falling, single point] and 20.6 µM [falling, single point].

`CCNC(=O)C(CC(C)C)NC(=O)C(CO)NC(=O)C1CCC(=O)N1` (stereo not drawn) ([pGlu]-Ser-Leu-NHEt; configuration not given here): the AC50 under setting [1] is 6.31 µM [rising, single point].
